# Assay results as given in the supplement of paper PMC5949888.
# Most values lie at the floor of the assay. Slopes are relative: functional sequences can read slightly below zero.
# Test system: Saccharomyces cerevisiae PS128 hsf1 delta, HSF1(1-493) fusion
# Assay: growth estimate (transactivation domain function in HSF1 fusion, heat-shock survival) (a.u. (slope of normalised read count over time)); higher = stronger growth at 37°C, i.e. more transactivation activity
# Details: library: random library
row,Substance,growth estimate
1,AKD,< -0.25
2,PTTHWATVVPPA,< -0.25
3,LLCHYMATFIRSRSWPSWG,< -0.25
4,KFTSVDTSVMNHLEIRDPLA,< -0.25
5,APGTSFGVGILIYPTDMPSR,< -0.25
6,LKI,< -0.25
7,SYQNSRP,< -0.25
8,NYVLECLVRWGRPLYVSFSI,< -0.25
9,LQDEC,< -0.25
10,ERVGRRIGRGNQRASS,< -0.25
11,AWTSSGTGASSDSHSKKSRE,< -0.25
12,RVAETKLGRPAATLARVLIQ,< -0.25
13,RFGQAMKCRE,< -0.25
14,KCQPNGALDRYSGVNTRCLG,< -0.25
15,DELAKLVLPGVHRQGSRRAI,< -0.25
16,KQEQHQKFGRELQLELTGLS,< -0.25
17,RADMVQSWVVRVLSGPKLAF,< -0.25
18,GHPICGVYRNDFTC,< -0.25
19,WVM,< -0.25
20,SCTAKRILFTVDRPLGALVT,< -0.25
21,ESAGI,< -0.25
22,LVFGPLLSRTRYVGGPHS,< -0.25
23,GGPA,< -0.25

row,Substance,growth estimate
1,TKSRVNIETNYELAPDQTDY,< -0.25
2,GNRVRVLKVISSAFWPSFVS,< -0.25
3,RRAFTWGQGVREVHDAPQTR,< -0.25
4,PKVIYLVS,< -0.25
5,SCVIPYSSKEITRREQNART,< -0.25
6,GGQAPVHITRQLLPIS,< -0.25
7,QWSGVGLEKSLVVMKGVSSS,< -0.25
8,LASLVRTEMLWRFLQ,< -0.25
9,GAVGTYRRLK,< -0.25
10,DKTVVKSKQQHQRYR,< -0.25
11,RVSLSSRLS,< -0.25
12,LLVFEFY,< -0.25
13,GGISILFQRDKLGTRVQKWP,< -0.25
14,PSFDGFVPNGWGSHGCKVRM,< -0.25
15,LRQF,< -0.25
16,SLILLSSSPGYWGYGLLPNI,< -0.25
17,WNRSTILTAQIPAEPTPFCR,< -0.25
18,CEACVRYL,< -0.25
19,VGQA,< -0.25
20,LGGVQSTTRANGQNQGSALL,< -0.25
21,TMRTEFPAIARWTLGRIA,< -0.25
22,VSG,< -0.25
23,CEICDVGYRARPIG,< -0.25

row,Substance,growth estimate
1,GSLEL,< -0.25
2,PYPQSLHG,< -0.25
3,AYKEFLTWHLLVPRPPIY,< -0.25
4,EQIAPGSQKGHTCAATVRSC,< -0.25
5,LLGKEGAPKAW,< -0.25
6,RHKPISR,< -0.25
7,FAYWVKVYGNIGTVDPAEYL,< -0.25
8,CGTSNGA,< -0.25
9,MDK,< -0.25
10,CHAGVLRLVRQHWRGRPRHS,-0.226
11,CCLRISRRVSHARIINLQ,< -0.25
12,TILVTVDDSHGVCGIWVTAG,< -0.25
13,CKHGDHILCRPRQ,< -0.25
14,RELESILPPERKSIQRTTLR,< -0.25
15,TVGSNQLRRASWGLFNRTGG,-0.231
16,GVKTLGFVPISSFVFRGRLA,< -0.25
17,FHLAYPGVGGEIDKTQSSCV,< -0.25
18,LIRLAGYPVRCCMCSSRMLG,< -0.25
19,CCPANNLDSGMGGQYEAPYA,-0.231
20,QDLLLDPQVQMRNVYCERRS,< -0.25
21,SLFCTLGNVLRTRFGGLRSI,< -0.25
22,SVIKMQSQGVSWHIKRISVV,< -0.25
23,CRGFIRMQWGARGPHFLHRP,< -0.25

row,Substance,growth estimate
1,SPLAARGTTELRSIHPTPMH,< -0.25
2,ILRWCSPRRPACEI,< -0.25
3,VQDWRAIGGTYDLGPAVAG,< -0.25
4,QRPKV,-0.246
5,SLVIDNPWSVQRFYRPIHLE,< -0.25
6,LLFNVGLVQLR,< -0.25
7,ATCNTR,< -0.25
8,SRIV,< -0.25
9,WGRVKQVIGPIRP,< -0.25
10,QVTAKTALLLRIRLREAFSD,< -0.25
11,IRRFQRASCFPTGSGYNESG,< -0.25
12,AGLHAVDSSPR,< -0.25
13,HCLIFEYRRRIASDIS,< -0.25
14,PWLGYRRTVGYLVHGRLCLT,-0.246
15,SARPWARVSTV,< -0.25
16,LDMLLPCSVSNFEKVVLRSN,< -0.25
17,NSRVTGGELTRGTLMPGPRS,< -0.25
18,STSRPTKVCAVRNQD,-0.246
19,SRQVTSIAQQ,-0.243
20,PRSHETSRKIGVPAVAALGQ,< -0.25
21,AGASEYHGKP,< -0.25
22,QRFSGAELNSCDFYALSTRS,< -0.25
23,LCAESGESNHLSRCRERKKS,< -0.25

row,Substance,growth estimate
1,NLPQSRLNLLAVSYLTVVGR,< -0.25
2,GLQVTRQTTSVLEAVSSL,< -0.25
3,EGFTLGTSRLQ,< -0.25
4,RVWVLCHRQAIWTEALLKDD,< -0.25
5,RFMDPLAPSE,< -0.25
6,QCAVAAGAAVSNFAFSWRQR,< -0.25
7,ETTWGVGTPLAHNDCLGRLR,< -0.25
8,ATVCIPDLNFGPILCS,< -0.25
9,LFRGMPVAK,< -0.25
10,TEHDCDI,< -0.25
11,PPRCCWKTGRWARSQDRP,< -0.25
12,QSRHPKKV,< -0.25
13,MDSIEGLQRCFE,< -0.25
14,QSILKMN,< -0.25
15,QVNLQGGVTG,< -0.25
16,TATAICPSL,< -0.25
17,SGVQYHFMRLKAWYSCLTSA,< -0.25
18,CCRGAGIT,< -0.25
19,ASNGKASGRGVSWNRYDQGA,< -0.25
20,QGLVNRRFAEAHGMHCVSVP,< -0.25
21,NGLWCTGSF,< -0.25
22,QLTLGHCNSGAVIRVVALCC,< -0.25
23,SDV,< -0.25

# Another view of part of the listing above:
row	Substance	growth estimate
2	GLQVTRQTTSVLEAVSSL	< -0.25
3	EGFTLGTSRLQ	< -0.25
8	ATVCIPDLNFGPILCS	< -0.25
11	PPRCCWKTGRWARSQDRP	< -0.25
14	QSILKMN	< -0.25
19	ASNGKASGRGVSWNRYDQGA	< -0.25
20	QGLVNRRFAEAHGMHCVSVP	< -0.25

# Following part

row,Substance,growth estimate
1,PPHVQCDTGVN,< -0.25
2,PKDRC,< -0.25
3,CNLAFHGVKRDGQWKRRRSK,< -0.25
4,QQSLIQRYRLKAPGRKRGRA,< -0.25
5,HLSNRRRFMAIWLGLLDRGN,< -0.25
6,LPGHHGVWLRLGEYLCALPP,< -0.25
7,STGLAEMTTRRVL,< -0.25
8,RKYSARHCSSAMVVLARVAD,< -0.25
9,PIPLRRRDCALGPRALCLVL,< -0.25
10,PDSGTGDTSLGTGIVPRTHL,< -0.25
11,VIRCFFSRLRPR,< -0.25
12,QFKARGTASQSDWSVR,< -0.25
13,SPRFCCEACTRYRDCYLCVG,< -0.25
14,YIFGR,< -0.25
15,LQSSLPWKSRPAEQEIWSYE,< -0.25
16,GLCKQLRTISVYNNHAFTPN,< -0.25
17,GSYPYST,< -0.25
18,QLVPLT,-0.25
19,SVRCYL,< -0.25
20,GFSWEAQLGR,< -0.25
21,HLIAGSRPSGRRVYMLGRRQ,< -0.25
22,RTRVKSYAVILTL,< -0.25
23,RQIGGNGSQLSLFCN,-0.237

row,Substance,growth estimate
1,LVRSELTSCASVIERRNLLP,< -0.25
2,LRGTVVSPQRMKFKEVHCRH,< -0.25
3,WNPRRECLVWSKWCQSI,< -0.25
4,RCYSALGAG,< -0.25
5,SWSSGMTRERPR,< -0.25
6,CTLCDLGRMHL,< -0.25
7,TLYFMQDACDIRERKIAPGR,< -0.25
8,RKKIVLSGGNACRDVEVV,< -0.25
9,HRTMSEQCV,< -0.25
10,LDRAHRILHVVAPHSAKKGV,< -0.25
11,YKPAESSTCNKERRTPGICN,< -0.25
12,DSLLI,< -0.25
13,ALE,< -0.25
14,KGRNY,< -0.25
15,GVLTEVSRAVRGSVRRSAVS,< -0.25
16,LTMISAIFCWNAR,< -0.25
17,ATGPGRGQEATIWRTGIGCH,< -0.25
18,LVGKEVGRRAGLLDWLPIRA,< -0.25
19,RCRARGAIVPFIARRENAGT,< -0.25

# Another view of part of the listing above.
row | Substance | growth estimate
2 | LRGTVVSPQRMKFKEVHCRH | < -0.25
3 | WNPRRECLVWSKWCQSI | < -0.25
12 | DSLLI | < -0.25
14 | KGRNY | < -0.25
18 | LVGKEVGRRAGLLDWLPIRA | < -0.25
